Publication PMC4039121
No constants are given. Whether binding was seen depends on the method and setting. Binding seen in cells or lysates may run through a third protein. Some results given as binding are weak or reduced against the parent protein; the word gives no strength.

The chains behind the UniProt entries cited, without tags or fusion partners. Where a name states a change or a piece, a line headed by the entry shows the natural chain unless it says otherwise. A line that says so, or that is headed by a name, gives the form on record, which may keep a tag or linker. Residues count along the entry.
Flag-tagged CHIP^ΔTPR (Q9UNE7, residues 226-300): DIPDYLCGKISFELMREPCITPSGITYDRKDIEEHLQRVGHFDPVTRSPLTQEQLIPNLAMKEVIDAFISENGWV

Key:
[1] = molecular target: Flag-tagged CHIP full length (CHIP^FL) (human) (UniProt Q9UNE7); experiment: co-IP; BxPC-3 cells co-transfected with His-EGFR and Flag-CHIP (full length or truncations) for 48 h, then MG132 (5 μM); immunoprecipitation with anti-Flag (or anti-His) antibody, protein A/G agarose beads; immunoblot with anti-His antibody
[2] = molecular target: Flag-tagged CHIP^ΔTPR (human) (UniProt Q9UNE7); experiment: as above
[3] = molecular target: Carboxyl terminus of heat shock protein 70-interacting protein (CHIP), endogenous (human (endogenous in BxPC-3)) (UniProt Q9UNE7); experiment: co-IP; endogenous proteins in BxPC-3 cells pretreated with MG132 (5 μM, 6 h by the legend); immunoprecipitation with CHIP or EGFR antibody, protein A/G agarose beads, modified RIPA buffer, 12 h at 4 °C; immunoblot

binding [1] | binding [2] | binding [3] | Substance
binds | no binding | – | His-tagged EGFR (from UniProt P00533 25-1210) (receptor)
– | – | binds | epidermal growth factor receptor (EGFR), endogenous (from UniProt P00533 25-1210)
